From PMC9649694
These are yes or no findings as the source states them, for the method shown. In cells and extracts the contact can be indirect. A yes stands for co-enrichment or nearness to the bait. Other partners may have been found.

Amino acid sequences for entries named in this document (tags omitted).
UniProt Q9H1Y0: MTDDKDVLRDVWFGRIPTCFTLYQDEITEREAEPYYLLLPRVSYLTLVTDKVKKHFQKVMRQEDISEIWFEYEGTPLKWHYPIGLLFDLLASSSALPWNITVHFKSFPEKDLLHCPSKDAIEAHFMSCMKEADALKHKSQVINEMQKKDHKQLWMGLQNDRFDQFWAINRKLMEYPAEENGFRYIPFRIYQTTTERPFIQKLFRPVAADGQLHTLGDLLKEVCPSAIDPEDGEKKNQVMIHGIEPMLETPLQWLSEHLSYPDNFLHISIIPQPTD
UniProt O60260: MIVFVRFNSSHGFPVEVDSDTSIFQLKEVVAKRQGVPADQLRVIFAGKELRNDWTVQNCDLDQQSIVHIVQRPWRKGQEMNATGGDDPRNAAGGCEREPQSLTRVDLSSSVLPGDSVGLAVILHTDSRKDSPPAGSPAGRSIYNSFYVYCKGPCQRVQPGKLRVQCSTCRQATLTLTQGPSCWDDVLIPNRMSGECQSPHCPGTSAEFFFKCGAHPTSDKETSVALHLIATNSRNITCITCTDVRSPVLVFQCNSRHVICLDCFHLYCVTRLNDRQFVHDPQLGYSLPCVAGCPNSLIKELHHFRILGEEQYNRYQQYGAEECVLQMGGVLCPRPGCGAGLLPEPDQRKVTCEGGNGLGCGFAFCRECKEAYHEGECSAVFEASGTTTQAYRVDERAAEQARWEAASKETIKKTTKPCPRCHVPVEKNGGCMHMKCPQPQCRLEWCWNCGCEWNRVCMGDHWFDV
UniProt O14818: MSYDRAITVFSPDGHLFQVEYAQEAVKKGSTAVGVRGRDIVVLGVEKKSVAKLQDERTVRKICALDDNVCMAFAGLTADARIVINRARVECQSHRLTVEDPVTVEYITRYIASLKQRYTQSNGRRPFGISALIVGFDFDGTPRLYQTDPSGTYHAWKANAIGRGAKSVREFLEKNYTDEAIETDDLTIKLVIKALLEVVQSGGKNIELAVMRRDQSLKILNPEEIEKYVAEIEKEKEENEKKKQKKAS

Assays:
FLAG-ATG5 (human) [1] = target: FLAG-ATG5 (human) (UniProt Q9H1Y0); experiment: affinity purification with mass spectrometry; SILAC-MS/MS on mitochondria isolated from Tri-SILAC labeled FLAG-ATG5 expressing HEK 293 T cells; CCCP against control; n = 3
FLAG-ATG5 (human) [2] = target: FLAG-ATG5 (human) (UniProt Q9H1Y0); experiment: affinity purification with mass spectrometry; SILAC-MS/MS interactome with ATG5 as bait; Tri-SILAC labeled FLAG-ATG5 expressing HEK 293 T cell extracts; CCCP against control; n = 1

Row | Substance | binding (FLAG-ATG5 (human) [1]) | binding (FLAG-ATG5 (human) [2])
1 | PARK2 found by SILAC-MS/MS (from UniProt O60260 1-465) | binds | –
2 | PSMA7 (endogenous, HEK 293 T cells) (from UniProt O14818 1-248) | – | binds
